# PubChem BioAssay AID1224829 – NIAID | 2016
# Purpose: 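Secondary check of hits that alter LPS-induced p65 translocation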 (follow-up of hits)
# Cell system: mouse RAW264.7 G9 macrophage reporter cells
# Knock-down reagent: single siRNA against mouse genes, 100 nM
# Timing: 2 days of siRNA knock-down, then 40 min of LPS before fixing
# Challenge: LPS (Salmonella minnesota R595) at 10 ng/ml
# Measured: 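High-content images after 40 min LPS exposure; GFP-p65 nucleus to surrounding ring signal ratio, normalised to plate median and non-targeting control wells, expressed as z-score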
# Direction: p65 translocation z-score and gene median z-score, per vendor: higher = more nuclear NF-kappaB p65 after LPS
# Rule for the call: 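An siRNA is called active when the mean z-score of its two replicates is above 2 or below -2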
# Meaning of the calls: active = changed p65 translocation (either direction); inactive = no clear change
# Shown is a random part of about 3,800 reagents tested. 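Calls cover raised and lowered translocation; gene median uses one vendor's three siRNAs; qiagen siRNAs acted more weakly than ambion siRNAs.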 The numbers tell different reagents against one gene apart.
gene,siRNA no.,siRNA vendor or control pool,"p65 translocation z-score, replicate mean","p65 translocation z-score, replicate 1","p65 translocation z-score, replicate 2","gene median z-score, per vendor",call
Gdi2 (GeneID 14569),1,ambion single siRNA,-0.96,-1.04,-0.88,-0.96,inactive
Gdi2 (GeneID 14569),2,ambion single siRNA,0.538,-1.28,2.36,-0.96,inactive
Gdi2 (GeneID 14569),3,ambion single siRNA,-1.06,-0.253,-1.87,-0.96,inactive
Gdi2 (GeneID 14569),4,qiagen single siRNA,-4.86,-3.78,-5.94,-5.94,active
Gdi2 (GeneID 14569),5,qiagen single siRNA,-6.58,-6.58,,-5.94,active
Gdi2 (GeneID 14569),6,qiagen single siRNA,-5.65,-4.79,-6.51,-5.94,active
Dgcr8 (GeneID 94223),1,ambion single siRNA,-2.19,-1.78,-2.6,-2.36,active
Dgcr8 (GeneID 94223),2,ambion single siRNA,-2.52,-2.11,-2.93,-2.36,active
Dgcr8 (GeneID 94223),3,ambion single siRNA,-2.3,-1.77,-2.84,-2.36,active
Dgcr8 (GeneID 94223),4,qiagen single siRNA,0.54,1.27,-0.19,-0.467,inactive
Dgcr8 (GeneID 94223),5,qiagen single siRNA,-0.521,-0.511,-0.532,-0.467,inactive
Dgcr8 (GeneID 94223),6,qiagen single siRNA,-1.04,-1.65,-0.423,-0.467,inactive
Hc (GeneID 15139),1,ambion single siRNA,-1.18,-1.94,-0.434,-0.809,inactive
Hc (GeneID 15139),2,ambion single siRNA,0.00757,0.459,-0.444,-0.809,inactive
Hc (GeneID 15139),3,ambion single siRNA,-1.29,-1.4,-1.17,-0.809,inactive
Hc (GeneID 15139),4,qiagen single siRNA,0.309,0.0932,0.525,-0.54,inactive
Hc (GeneID 15139),5,qiagen single siRNA,-1.33,-2.13,-0.54,-0.54,inactive
Hc (GeneID 15139),6,qiagen single siRNA,-3.28,-3.28,,-0.54,active
Hivep2 (GeneID 15273),1,ambion single siRNA,-2.82,-3.51,-2.13,-1.91,active
Hivep2 (GeneID 15273),2,ambion single siRNA,1.47,1.88,1.06,-1.91,inactive
Hivep2 (GeneID 15273),3,ambion single siRNA,-1.94,-2.19,-1.68,-1.91,inactive
Hivep2 (GeneID 15273),4,qiagen single siRNA,1.53,0.823,2.24,0.656,inactive
Hivep2 (GeneID 15273),5,qiagen single siRNA,1.75,0.488,3.02,0.656,inactive
Hivep2 (GeneID 15273),6,qiagen single siRNA,-0.951,-2.32,0.416,0.656,inactive
